# Experimental data: PMC7665214
# Chains of the proteins cited; added tags and fusions are not shown.
# UniProt Q96J92: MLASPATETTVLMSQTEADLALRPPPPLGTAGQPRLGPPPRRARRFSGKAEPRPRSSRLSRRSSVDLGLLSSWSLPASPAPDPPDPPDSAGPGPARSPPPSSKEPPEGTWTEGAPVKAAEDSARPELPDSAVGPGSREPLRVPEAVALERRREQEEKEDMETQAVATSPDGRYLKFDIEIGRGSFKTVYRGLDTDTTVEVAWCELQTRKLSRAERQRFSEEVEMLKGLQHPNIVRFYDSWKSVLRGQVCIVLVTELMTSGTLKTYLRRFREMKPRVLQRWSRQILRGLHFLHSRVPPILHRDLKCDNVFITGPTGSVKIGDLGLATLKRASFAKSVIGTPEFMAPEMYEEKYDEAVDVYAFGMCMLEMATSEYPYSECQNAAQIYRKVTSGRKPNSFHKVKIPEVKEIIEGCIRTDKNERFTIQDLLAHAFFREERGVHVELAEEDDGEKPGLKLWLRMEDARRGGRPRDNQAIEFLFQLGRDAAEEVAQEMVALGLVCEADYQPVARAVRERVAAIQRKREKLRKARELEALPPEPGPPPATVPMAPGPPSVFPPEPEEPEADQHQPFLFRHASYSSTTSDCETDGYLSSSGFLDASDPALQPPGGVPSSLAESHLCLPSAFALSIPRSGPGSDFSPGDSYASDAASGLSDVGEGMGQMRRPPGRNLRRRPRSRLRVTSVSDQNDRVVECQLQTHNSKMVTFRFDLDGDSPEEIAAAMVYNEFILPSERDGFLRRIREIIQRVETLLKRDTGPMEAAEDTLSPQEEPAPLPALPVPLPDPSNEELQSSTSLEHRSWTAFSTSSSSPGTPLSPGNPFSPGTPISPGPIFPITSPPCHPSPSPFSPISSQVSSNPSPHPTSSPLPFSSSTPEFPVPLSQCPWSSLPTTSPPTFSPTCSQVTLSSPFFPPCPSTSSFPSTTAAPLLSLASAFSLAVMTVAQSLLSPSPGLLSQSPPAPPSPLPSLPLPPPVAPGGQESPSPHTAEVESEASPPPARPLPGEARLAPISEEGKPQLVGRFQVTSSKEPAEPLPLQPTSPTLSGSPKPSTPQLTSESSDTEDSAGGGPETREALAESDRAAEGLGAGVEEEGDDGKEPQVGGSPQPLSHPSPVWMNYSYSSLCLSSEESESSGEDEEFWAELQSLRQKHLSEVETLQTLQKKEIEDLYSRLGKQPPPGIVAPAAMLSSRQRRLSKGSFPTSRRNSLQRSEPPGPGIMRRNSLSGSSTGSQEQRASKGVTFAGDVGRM
# UniProt Q7L5Y9: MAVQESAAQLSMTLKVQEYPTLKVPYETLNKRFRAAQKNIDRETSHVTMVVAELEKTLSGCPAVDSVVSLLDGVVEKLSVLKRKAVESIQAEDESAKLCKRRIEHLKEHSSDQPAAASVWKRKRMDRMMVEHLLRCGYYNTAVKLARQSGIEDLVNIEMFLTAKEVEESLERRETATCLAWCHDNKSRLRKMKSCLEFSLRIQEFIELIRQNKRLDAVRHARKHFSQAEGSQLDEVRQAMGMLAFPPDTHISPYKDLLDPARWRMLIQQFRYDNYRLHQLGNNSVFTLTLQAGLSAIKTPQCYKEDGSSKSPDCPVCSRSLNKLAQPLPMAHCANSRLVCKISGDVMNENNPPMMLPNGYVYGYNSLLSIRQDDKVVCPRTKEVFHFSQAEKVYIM
# UniProt P35222: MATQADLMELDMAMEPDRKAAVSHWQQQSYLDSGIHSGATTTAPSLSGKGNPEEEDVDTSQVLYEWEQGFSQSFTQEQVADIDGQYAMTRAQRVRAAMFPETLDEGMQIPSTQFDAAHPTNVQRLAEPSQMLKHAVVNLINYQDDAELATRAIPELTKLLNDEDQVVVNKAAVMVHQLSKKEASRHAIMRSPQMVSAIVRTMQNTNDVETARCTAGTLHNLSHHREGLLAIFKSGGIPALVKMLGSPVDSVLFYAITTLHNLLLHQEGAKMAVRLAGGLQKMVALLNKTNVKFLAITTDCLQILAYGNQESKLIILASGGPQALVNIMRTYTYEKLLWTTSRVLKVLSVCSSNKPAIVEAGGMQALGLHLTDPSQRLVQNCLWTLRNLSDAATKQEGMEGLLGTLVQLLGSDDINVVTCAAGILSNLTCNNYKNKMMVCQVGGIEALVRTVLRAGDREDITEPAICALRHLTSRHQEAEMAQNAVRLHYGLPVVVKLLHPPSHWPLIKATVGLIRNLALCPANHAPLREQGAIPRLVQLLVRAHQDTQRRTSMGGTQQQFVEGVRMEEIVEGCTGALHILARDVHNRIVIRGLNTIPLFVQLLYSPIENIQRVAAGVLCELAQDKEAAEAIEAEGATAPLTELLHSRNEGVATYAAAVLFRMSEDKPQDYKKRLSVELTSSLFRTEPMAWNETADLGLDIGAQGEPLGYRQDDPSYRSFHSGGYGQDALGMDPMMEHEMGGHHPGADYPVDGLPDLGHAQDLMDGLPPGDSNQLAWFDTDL
# UniProt Q9H871: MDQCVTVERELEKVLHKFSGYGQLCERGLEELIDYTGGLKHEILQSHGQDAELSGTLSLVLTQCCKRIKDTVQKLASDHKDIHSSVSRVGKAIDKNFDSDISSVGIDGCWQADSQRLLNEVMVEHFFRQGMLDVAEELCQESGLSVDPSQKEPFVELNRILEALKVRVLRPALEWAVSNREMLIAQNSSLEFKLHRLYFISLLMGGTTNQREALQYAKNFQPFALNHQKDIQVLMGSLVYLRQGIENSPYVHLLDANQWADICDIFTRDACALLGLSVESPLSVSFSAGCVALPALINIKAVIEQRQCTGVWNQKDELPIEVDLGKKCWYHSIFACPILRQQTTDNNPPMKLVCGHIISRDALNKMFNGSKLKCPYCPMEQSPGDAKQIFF
# UniProt Q9H4A3: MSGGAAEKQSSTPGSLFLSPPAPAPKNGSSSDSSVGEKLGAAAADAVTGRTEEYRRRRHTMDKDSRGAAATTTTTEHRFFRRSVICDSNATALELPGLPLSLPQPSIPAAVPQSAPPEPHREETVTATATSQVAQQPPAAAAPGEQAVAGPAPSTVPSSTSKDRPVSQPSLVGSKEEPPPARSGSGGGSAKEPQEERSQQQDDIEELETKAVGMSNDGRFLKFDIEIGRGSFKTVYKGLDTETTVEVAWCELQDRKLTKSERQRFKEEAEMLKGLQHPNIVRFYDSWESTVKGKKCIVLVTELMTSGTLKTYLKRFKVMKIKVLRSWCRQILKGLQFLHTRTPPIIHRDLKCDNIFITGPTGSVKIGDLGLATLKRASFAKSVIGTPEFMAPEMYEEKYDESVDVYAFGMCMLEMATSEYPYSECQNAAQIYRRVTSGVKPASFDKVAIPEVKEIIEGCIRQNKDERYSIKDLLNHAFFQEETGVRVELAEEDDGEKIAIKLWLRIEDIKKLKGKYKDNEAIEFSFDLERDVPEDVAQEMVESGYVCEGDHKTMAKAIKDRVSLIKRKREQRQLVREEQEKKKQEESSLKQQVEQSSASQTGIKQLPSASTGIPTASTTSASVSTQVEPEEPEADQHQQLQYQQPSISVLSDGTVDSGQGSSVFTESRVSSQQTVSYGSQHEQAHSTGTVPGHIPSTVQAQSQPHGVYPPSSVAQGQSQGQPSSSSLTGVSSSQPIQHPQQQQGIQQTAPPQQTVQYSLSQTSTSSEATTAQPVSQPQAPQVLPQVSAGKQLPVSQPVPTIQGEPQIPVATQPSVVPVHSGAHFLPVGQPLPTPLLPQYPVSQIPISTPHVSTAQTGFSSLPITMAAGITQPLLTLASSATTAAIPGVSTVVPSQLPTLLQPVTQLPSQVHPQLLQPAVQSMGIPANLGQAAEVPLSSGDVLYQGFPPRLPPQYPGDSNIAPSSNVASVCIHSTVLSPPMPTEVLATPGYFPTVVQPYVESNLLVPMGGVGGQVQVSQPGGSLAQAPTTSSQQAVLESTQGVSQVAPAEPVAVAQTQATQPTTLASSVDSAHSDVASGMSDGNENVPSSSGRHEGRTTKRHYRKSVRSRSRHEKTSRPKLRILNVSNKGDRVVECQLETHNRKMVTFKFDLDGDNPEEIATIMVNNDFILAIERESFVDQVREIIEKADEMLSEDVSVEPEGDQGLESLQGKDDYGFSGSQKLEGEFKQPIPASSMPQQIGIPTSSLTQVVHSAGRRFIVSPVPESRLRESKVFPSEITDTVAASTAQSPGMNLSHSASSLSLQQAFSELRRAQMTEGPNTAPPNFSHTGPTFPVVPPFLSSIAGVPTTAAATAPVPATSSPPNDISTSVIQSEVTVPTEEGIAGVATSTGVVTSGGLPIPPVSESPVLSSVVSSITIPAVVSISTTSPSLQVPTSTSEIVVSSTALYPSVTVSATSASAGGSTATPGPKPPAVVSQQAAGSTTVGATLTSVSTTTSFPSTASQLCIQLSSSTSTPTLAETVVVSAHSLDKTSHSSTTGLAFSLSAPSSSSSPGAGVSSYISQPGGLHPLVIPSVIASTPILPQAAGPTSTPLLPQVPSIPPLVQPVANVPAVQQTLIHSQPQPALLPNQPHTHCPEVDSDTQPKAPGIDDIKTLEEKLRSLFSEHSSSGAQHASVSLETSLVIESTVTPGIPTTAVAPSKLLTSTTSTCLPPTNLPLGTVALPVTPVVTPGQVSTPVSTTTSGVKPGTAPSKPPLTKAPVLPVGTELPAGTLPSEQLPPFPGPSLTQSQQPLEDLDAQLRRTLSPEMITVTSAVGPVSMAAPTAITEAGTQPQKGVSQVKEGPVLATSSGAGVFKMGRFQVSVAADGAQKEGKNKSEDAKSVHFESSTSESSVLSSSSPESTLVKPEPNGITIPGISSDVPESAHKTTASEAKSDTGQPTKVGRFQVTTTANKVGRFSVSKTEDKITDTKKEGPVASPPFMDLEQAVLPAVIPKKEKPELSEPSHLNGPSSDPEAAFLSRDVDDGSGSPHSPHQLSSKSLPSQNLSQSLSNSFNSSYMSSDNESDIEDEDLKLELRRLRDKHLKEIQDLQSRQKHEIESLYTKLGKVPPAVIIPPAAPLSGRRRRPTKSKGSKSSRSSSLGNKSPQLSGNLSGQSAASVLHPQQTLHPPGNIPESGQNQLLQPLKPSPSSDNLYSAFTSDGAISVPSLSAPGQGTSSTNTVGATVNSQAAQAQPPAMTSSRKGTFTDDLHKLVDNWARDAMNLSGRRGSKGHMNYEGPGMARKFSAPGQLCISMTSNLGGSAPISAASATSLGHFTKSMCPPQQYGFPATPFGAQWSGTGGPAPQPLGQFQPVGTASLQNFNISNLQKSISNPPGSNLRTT
# No constants are given. Whether binding was seen depends on the method and setting. In cells and extracts the contact can be indirect. Some results given as binding are weak or reduced against the parent protein; the word gives no strength.
# What was measured:
# Assay in all cases: co-IP; HEK293T cells transfected with the indicated expression vectors; lysates immunoprecipitated with the indicated antibodies (anti-myc for Fig. 3a, b) and Protein A/G PLUS-agarose; western blot; some panels with expression or knockdown of WNK1 and/or WNK4, or treatment with 26016 or #13
# [1] = biological target: WNK4 (With No Lysine [K] kinase 4), myc-tagged (UniProt Q96J92)
# MAEA, Flag-tagged = MAEA, Flag-tagged (UniProt Q7L5Y9)
# β-Catenin = β-Catenin (UniProt P35222)
Substance,binding [1],"binding (MAEA, Flag-tagged)",binding (β-Catenin)
"RMND5A, Flag-tagged (from UniProt Q9H871 1-391)",binds,binds,no binding
"WNK1 (With No Lysine [K] kinase 1), myc-tagged (from UniProt Q9H4A3 1-2382)",binds,–,–
